{"sequences": {"note": "By UniProt entry, the sequences of proteins in these tests, tags left out.", "UniProt P18054, whole entry, looked up": "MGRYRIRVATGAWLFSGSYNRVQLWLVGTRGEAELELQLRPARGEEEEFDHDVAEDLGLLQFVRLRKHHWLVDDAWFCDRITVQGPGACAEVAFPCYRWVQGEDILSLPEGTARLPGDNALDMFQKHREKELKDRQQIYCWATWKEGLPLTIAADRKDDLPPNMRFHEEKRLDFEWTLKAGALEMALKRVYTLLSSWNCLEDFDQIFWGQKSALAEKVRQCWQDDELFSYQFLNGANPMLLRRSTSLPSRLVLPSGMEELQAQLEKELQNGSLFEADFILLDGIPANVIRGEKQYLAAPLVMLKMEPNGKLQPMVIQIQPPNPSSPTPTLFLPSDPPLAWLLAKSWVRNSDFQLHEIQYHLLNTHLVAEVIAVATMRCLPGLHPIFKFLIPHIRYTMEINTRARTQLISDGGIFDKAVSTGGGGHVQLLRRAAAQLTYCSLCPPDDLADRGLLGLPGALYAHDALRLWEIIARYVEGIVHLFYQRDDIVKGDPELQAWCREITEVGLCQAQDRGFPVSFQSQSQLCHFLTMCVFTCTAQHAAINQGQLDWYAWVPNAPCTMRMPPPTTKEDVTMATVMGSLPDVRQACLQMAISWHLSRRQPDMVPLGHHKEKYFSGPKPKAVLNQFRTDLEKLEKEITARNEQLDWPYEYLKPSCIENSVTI"}, "source": "PubChem BioAssay AID1671190", "about": "(National Center for Advancing Translational Sciences (NCATS), 2021)", "note": "Among all 580,000 compounds or so, about 6,100 (1.1%) were called active. This list was built around the results that the source calls inconclusive (neither active nor inactive); the mix of calls is not that of the screen. Calls come from the whole dose curve; as a rule, active = well fitted inhibition curve with a large enough effect; inconclusive = small, poorly fitted or top-dose-only effect, or another doubt; inactive = no such curve, though single readings can be large or run the other way. Potencies beside an inconclusive call are fits to weak or partial responses and may not hold up. % is set by controls: 0 for no effect and ±100 for the full control effect; potency is the fitted concentration of half-maximal effect.", "data": [{"target": "Polyunsaturated fatty acid lipoxygenase ALOX12 (Homo sapiens) (UniProt P18054)", "assay": "Primary qHTS assay for inhibitors of human arachidonate 12S-lipoxygenase (ALOX12): Round 2", "conditions": "purified 12hLO, xylenol orange hydroperoxide absorbance; activity change, negative = inhibition: at 108 µM (top of the series) unless noted", "procedure,_shortened": "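Purified human 12hLO (150 nM final) in 25 mM Hepes, 0.01% Triton X-100, pH 7.0 was preincubated 15 min at room temperature with compound. Then 40 uM arachidonic acid was added, 30 min. Hydroperoxide was read by Fe-XO absorbance ratio 573/405 nm.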", "values": [{"smiles": "COc1ccc(C(=O)OC(C)CN2CCN(C)CC2)cc1OC", "note": "(stereo not drawn)", "Potency": "inconclusive: 39.8 µM [inhibitor, partial curve, poor fit]"}, {"smiles": "Cc1ccc(CN2C(=O)c3cc(-c4ccccc4)nn3CC2(C)C(=O)NCc2ccccc2)o1", "note": "(stereo not drawn)", "Potency": "inconclusive: 44.7 µM [inhibitor, single point]"}, {"smiles": "Cc1ccc(C(C(=O)NC2CCCC2)N(C(=O)Cc2cccs2)c2ccc(C)c(C)c2)o1", "note": "(stereo not drawn)", "Potency": "inconclusive: 224 µM [inhibitor, partial curve, poor fit]"}, {"smiles": "CCOC(=O)c1cc(S(=O)(=O)Nc2c(C)cc(C)cc2C)[nH]n1", "Potency": "inconclusive: 44.7 µM [inhibitor, partial curve]"}, {"smiles": "CCOC(=O)c1[nH]c2c(OCC)nc(OCC)nc2c1Br", "Potency": "inconclusive: 112 µM [inhibitor, single point]"}, {"smiles": "CC(=O)c1cccc(NS(=O)(=O)N2CCOCC2)c1", "Potency": "inconclusive: 112 µM [inhibitor, single point]"}, {"smiles": "COc1ccc(C)cc1Nc1cc(C)nc2nc(C)nn12", "Potency": "inconclusive: 28.2 µM [inhibitor, single point]"}, {"smiles": "CCOC(=O)N1CCN(c2ncc3c(n2)CC(c2ccc(Cl)cc2)CC3=O)CC1", "note": "(stereo not drawn)", "Potency": "inconclusive: 50.1 µM [inhibitor, partial curve, poor fit]"}, {"smiles": "CCOc1ccc2nc(N3CCCC(C(=O)N4CCN(CC)CC4)C3)sc2c1", "note": "(stereo not drawn)", "Potency": "inconclusive: 2.51 µM [inhibitor, full curve]"}, {"smiles": "Fc1cccc(Cc2c(-c3cccc(Cl)c3)nc3c4ccccc4ccn23)c1", "Potency": "inconclusive: 35.5 µM [inhibitor, partial curve, poor fit]"}, {"smiles": "C/C(=N/NS(=O)(=O)c1ccc(C)cc1)[C@H]1C[C@@H]1c1ccccc1", "Potency": "inconclusive: 44.7 µM [inhibitor, partial curve, poor fit]"}, {"smiles": "Cc1c(C(=O)Nc2nc3ccccc3[nH]2)oc2ccccc12", "activity change, negative = inhibition": "inactive: -12.6%"}, {"smiles": "O=C(NC(=S)Nc1cc(S(=O)(=O)N2CCOCC2)ccc1N1CCOCC1)c1ccco1", "Potency": "inconclusive: 28.2 µM [inhibitor, single point]"}, {"smiles": "Cc1ccc(-c2cc(NC=O)c3ncc(-c4cnn(C)c4)n3c2)cc1", "Potency": "inconclusive: 89.1 µM [inhibitor, single point]"}, {"smiles": "COc1ccc(NC(=O)CN(C)C(=O)c2cc(C)oc2C)cc1", "Potency": "inconclusive: 44.7 µM [inhibitor, partial curve]"}, {"smiles": "COc1ccc(NC(=S)NCCc2ccc(F)cc2)c(OC)c1", "Potency": "inconclusive: 56.2 µM [inhibitor, partial curve, poor fit]"}, {"smiles": "Brc1cc(Cc2nnc(-c3ccccc3)o2)c(Br)s1", "activity change, negative = inhibition": "inactive: 72.4%"}, {"smiles": "CCc1cccc(NC(=O)Cc2c[nH]c3ccccc23)c1", "Potency": "inconclusive: 63.1 µM [inhibitor, partial curve, poor fit]"}, {"smiles": "Cc1ccc(S(=O)(=O)Oc2c(C)occc2=O)cc1", "activity change, negative = inhibition": "inactive: 18.4%"}, {"smiles": "COC(=O)CNc1nc(-c2cccnc2)nc2ccccc12", "activity change, negative = inhibition": "inactive: 2.65%"}, {"smiles": "COc1cc(C)c(C)cc1S(=O)(=O)n1ccnc1C", "activity change, negative = inhibition": "inactive: 32.8%"}, {"smiles": "COc1ccc(Cl)cc1C(=O)OCCOc1ccccc1F", "activity change, negative = inhibition": "inactive: 26.4%"}, {"smiles": "CC(C)C[C@H](NC(=O)NCc1ccccc1Cl)C(=O)O", "Potency": "inconclusive: 28.2 µM [inhibitor, partial curve, poor fit]"}, {"smiles": "COC(=O)c1ccc(NC(=O)Nc2cccc(F)c2)cc1", "activity change, negative = inhibition": "inactive: -15.5%"}, {"smiles": "Fc1ccc(Nc2nc(-c3ccccc3F)no2)cc1", "Potency": "inconclusive: 44.7 µM [inhibitor, full curve, poor fit]"}, {"smiles": "COC(=O)c1ccccc1NC(=O)COC(=O)c1ccco1", "activity change, negative = inhibition": "inactive: -21.7%"}, {"smiles": "CCCCN1CC(N2CCN(Cc3ccccc3)CC2)CS1(=O)=O", "note": "(stereo not drawn)", "Potency": "inconclusive: 112 µM [inhibitor, partial curve, poor fit]"}, {"smiles": "CN(C)CCCN(C(=O)c1ccc(S(=O)(=O)N(C)C2CCCCC2)cc1)c1nc2ccc(Br)cc2s1", "Potency": "inconclusive: 39.8 µM [inhibitor, partial curve]"}, {"smiles": "COC(=O)[C@@H]1Cc2ncn(C)c2CN1S(=O)(=O)c1ccc(OC)cc1", "Potency": "active: 31.6 µM"}, {"smiles": "Cc1nc(Nc2nc3ccccc3o2)nc(C)c1C(=O)Nc1cccc(C(F)(F)F)c1", "activity change, negative = inhibition": "inactive: 132%"}, {"smiles": "Cc1noc(C)c1C(=O)N1CCC[C@@]2(CCN(c3ccccc3)C2)C1", "Potency": "inconclusive: 35.5 µM [inhibitor, single point]"}, {"smiles": "COc1ccc(N2CCN(CC(O)COc3cc(C)cc(C)c3)CC2)cc1", "note": "(stereo not drawn)", "Potency": "inconclusive: 39.8 µM [inhibitor, partial curve, poor fit]"}, {"smiles": "COP(=O)(OC)c1nc(-c2cccs2)oc1NCc1ccccc1", "activity change, negative = inhibition": "inactive: -35.2%"}, {"smiles": "C=CCNC(=O)/C(=C\\c1ccc2c(c1)OCO2)NC(=O)c1ccc(Br)cc1", "activity change, negative = inhibition": "inactive: -9.6%"}, {"smiles": "COc1ccc(C(=O)COc2nc(C)cc(C)c2C#N)cc1", "activity change, negative = inhibition": "inactive: -25.3%"}, {"smiles": "CCc1ccc(OCC(O)Cn2c(SCCC(C)C)nc3c2c(=O)[nH]c(=O)n3C)cc1", "note": "(stereo not drawn)", "Potency": "inconclusive: 35.5 µM [inhibitor, partial curve, poor fit]"}, {"smiles": "COc1ccc(-c2cc(-c3cccc(NC(C)=O)c3)cn3cncc23)cc1", "Potency": "inconclusive: 22.4 µM [inhibitor, partial curve, poor fit]"}, {"smiles": "COc1ccc(NC(=O)C2(C)CCN2Cc2ccc(SC)cc2)cc1OC", "note": "(stereo not drawn)", "Potency": "inconclusive: 31.6 µM [inhibitor, single point]"}, {"smiles": "C/C(=N\\Nc1ccc(C(=O)c2c(C)cc3ccccn23)cc1[N+](=O)[O-])c1ccc(O)cc1", "activity change, negative = inhibition": "inactive: -5.63%"}, {"smiles": "C(=C\\c1ccccc1)/CN1CCN(C(c2ccnc3ccccc23)c2nnnn2C2CCCCC2)CC1", "note": "(stereo not drawn)", "Potency": "inconclusive: 112 µM [inhibitor, single point]"}, {"smiles": "CCOC(=O)c1c(CN2CCN(c3ccccc3)CC2)oc2cc(Br)c(O)cc12", "Potency": "inconclusive: 20 µM [inhibitor, partial curve, poor fit]"}, {"smiles": "COCCN=c1scc(-c2cc(OC)c(OC)c(OC)c2)n1/N=C/c1c(C)[nH]c2ccccc12", "activity change, negative = inhibition": "inactive: -25.6%"}, {"smiles": "O=C(CSc1nc2ccc(Cl)cc2[nH]1)Nc1ccc2[nH]c(=O)[nH]c2c1", "activity change, negative = inhibition": "inactive: -24.6%"}, {"smiles": "CC(=O)c1sc(Nc2cccc3ccccc23)nc1C", "Potency": "inconclusive: 39.8 µM [inhibitor, partial curve, poor fit]"}, {"smiles": "CCN(CC(=O)NCc1ccc(F)cc1)Cc1cc(=O)n2ccsc2n1", "activity change, negative = inhibition": "inactive: 2.04%"}, {"smiles": "CC(=O)C1=C(O)C(=O)N(Cc2cccnc2)C1c1ccc(Cl)cc1", "note": "(stereo not drawn)", "Potency": "inconclusive: 2.51 µM [inhibitor, full curve, poor fit]"}, {"smiles": "O=C(NCC1CCCO1)c1ccc2c(=O)n(Cc3ccc(Cl)cc3)c(=S)[nH]c2c1", "note": "(stereo not drawn)", "Potency": "inconclusive: 100 µM [inhibitor, single point]"}, {"smiles": "Cc1cc(C)c(C(=O)/C=C/c2cccc3ccccc23)c(=O)[nH]1", "activity change, negative = inhibition": "inactive: -15.8%"}, {"smiles": "F[B-](F)(F)c1cncc2ccccc12", "Potency": "inconclusive: 35.5 µM [inhibitor, single point]"}, {"smiles": "O=C1CCCN1CCCN1C(=O)[C@@H]2C[C@@H](O)CN2C2(CN(Cc3ccccc3Cl)C2)C1=O", "activity change, negative = inhibition": "inactive: 91.7%"}, {"smiles": "COc1ccc2c(c1)CCC1C2=NN(/C(C)=C\\C(C)=O)C1c1ccc(F)cc1", "note": "(stereo not drawn)", "Potency": "inconclusive: 50.1 µM [inhibitor, partial curve, poor fit]"}, {"smiles": "CC1=C(C(=O)N2CCN(c3ccc(Cl)cc3)CC2)C2(CCC(C)CC2)OC1=O", "note": "(stereo not drawn)", "Potency": "inconclusive: 50.1 µM [inhibitor, partial curve, poor fit]"}, {"smiles": "Cc1cc(C(=O)NC2CC2)c2cc(Br)ccc2n1", "Potency": "inconclusive: 112 µM [inhibitor, single point]"}, {"smiles": "CCC(=NNS(=O)(=O)c1ccc(C)cc1)c1ccccc1", "Potency": "inconclusive: 141 µM [inhibitor, partial curve, poor fit]"}, {"smiles": "C=CCn1c(SCc2nc3sc4c(c3c(=O)[nH]2)CCCC4)nc2ccccc2c1=O", "Potency": "inconclusive: 0.398 µM [inhibitor, full curve, poor fit]"}, {"smiles": "Nc1ccccc1OC1CCCCC1", "Potency": "inconclusive: 4.47 µM [inhibitor, full curve, poor fit]"}, {"smiles": "O=C(/C=C/c1ccco1)Nc1sc2c(c1C(=O)O)CCC2", "Potency": "inconclusive: 39.8 µM [inhibitor, partial curve]"}, {"smiles": "O=C(Cn1c(=O)n(Cc2ccccc2)c(=O)c2sc3ccccc3c21)Nc1ccc(F)cc1", "activity change, negative = inhibition": "inactive: -31.9%"}, {"smiles": "Cc1cccc(NC(=O)CN2CCN(C(=O)CCNC(=O)c3ccc(C(C)(C)C)cc3)CC2)c1C", "activity change, negative = inhibition": "inactive: 18.9%"}, {"smiles": "c1coc(-c2nc(-c3ccc4c(c3)OCCCO4)cs2)c1", "Potency": "inconclusive: 11.2 µM [inhibitor, full curve, poor fit]"}, {"smiles": "CC1(c2ccccc2)NC(=O)N(CC(=O)Nc2cccc(/C=C/c3ccccn3)c2)C1=O", "note": "(stereo not drawn)", "Potency": "inconclusive: 100 µM [inhibitor, single point]"}, {"smiles": "Cc1cc(C)n(CCCC(=O)O)n1", "Potency": "inconclusive: 20 µM [inhibitor, partial curve, poor fit]"}, {"smiles": "CCCCN(CC)CCCNC(=O)c1cc2c(=O)oc3ccc(C)cc3c2s1", "Potency": "inconclusive: 112 µM [inhibitor, partial curve, poor fit]"}, {"smiles": "COc1cc(/C=C(/C#N)C(=O)OC(C)C)cc(Cl)c1O", "Potency": "active: 20 µM"}, {"smiles": "COc1ccc(C(C(O)C(=O)c2c[nH]c3ccccc23)N2CCN(c3ccc(OC)cc3)CC2)cc1", "note": "(stereo not drawn)", "activity change, negative = inhibition": "inactive: 8.9%"}, {"smiles": "COc1ccc(/C(=N/OC(=O)c2ccc(Cl)cc2)c2nccc3cc(OC)c(OC)cc23)cc1OC", "Potency": "inconclusive: 39.8 µM [inhibitor, partial curve, poor fit]"}, {"smiles": "CCOC(=O)c1cc(-c2ccccc2)n(CC(=O)NCc2ccccc2)c1C", "activity change, negative = inhibition": "inactive: -6.35%"}, {"smiles": "COc1ccc(-c2cc(-c3ccccc3)nc(=O)[nH]2)cc1", "Potency": "inconclusive: 31.6 µM [inhibitor, partial curve, poor fit]"}]}]}
